No constants are given. Whether binding was seen depends on the method and setting. Some binding calls cover weakened binding; strength is not graded here.
These binders were tested against EGFR (UniProt P00533) (assay: peptide screen, Example 48).

binding, binds:
YAEHCYRFPTDWICTLMS [EGA936], YAEHCLTFPTDWICSLAQ [EGA896], YAAHCWQFPTDWICTLIP [EGA922], YAEHCWLFPTDWICTLRT [EGA950], YAEHCRQFPTDWICGLMT [EGA919], YAEHCWQFPTDWICTLMS [EGA918], YAEHCTQFPTDWICTLTS [EGA903], YVEHCYQFPADWICTLKT [EGA955], YVDHCWDFPTDWICTLLS [EGA906], YAEHCRQFPSDWICTLMT [EGA904], YAEHCWLFPTDWICTLMT [EGA930], YEEHCGLFPTDWICTLMD [EGA941], YAGHCRDFPSDWICSLVP [EGA897], YTSHCRHFPNDWICTLLP [EGA947], YDEHCRQFPTDWICKLTT [EGA935], YAGHCNLFPTDWICTLKT [EGA940], YARHCMQFPTDWICSLTT [EGA911], YGQHCSLFPTDWICSLMT [EGA894], FQGHCALFPTDWICTLKS [EGA951], YAVHCWQFPADWICSLEM [EGA959], YSEHCWQFPDDWICTLMT [EGA892], YAEHCYMFPTDWICTLTA [EGA925], YYEHCTLFPSDWICTLMT [EGA931], YADHCSQFPTDWICTLIP [EGA920], YIEHCWQFPTDWICTLMT [EGA907], YAEHCRLFPADWICSLMT [EGA952], YAEHCRQFRTDWICTLMT [EGA895], YEEHCQLFPTDWICTIRT [EGA915], YADHCWQFPSDWICTLLA [EGA910], YAEHCGMFPNDWICSLTK [EGA961], YAEHCRHFPSDWICTLTK [EGA956], YEDHCSLFPKDWICGLMP [EGA913], YAEHCWQFPTDWICTLRS [EGA912], YGEHCWQFPTDWICTLVT [EGA933], YQEHCWLFPTDWICSLTS [EGA899], YEEHCALFPTDWICTLH [EGA932], YAEHCWMFPTDWICSLLP [EGA944], YAGHCSRFPTDWICTLMA [EGA937], YADHCLQFPLDWICTLMK [EGA902], YTEHCWLFPTDWICSLMP [EGA927], YAQHCMQFPTDWICTLMT [EGA909], YREHCGQFPNDWICSLLT [EGA954], YAEHCWRFPTDWICTLMT [EGA946], YAEHCSQFPTDWICSLLT [EGA957], YAEHCWLFPTDWICSLMP [EGA901], YAEHCWYFPTDWICTLT [EGA898], YADHCWLFPNDWICTLIK [EGA949], YAEHCWLFPSDWICTLMP [EGA924], YAEHCWQFPHDWICTLTK [EGA948], YSEHCWLFPTDWICTLPT [EGA942], YSEHCYLFPTDWICTLPT [EGA905], YAEHCGLFPTDWICTLMT [EGA953], YDEHCLKFPADWICSLPR [EGA939], YSEHCWLFPTDWICTLVP [EGA921], YAEHCWQFPTDWICTLLP [EGA914], YAQHCWQFPADWICTLIE [EGA938], YSEHCWLFPSDWICSLDT [EGA934], YEQHCWHFPNDWICTLMT [EGA929], YAEHCWQFPSDWICTLLP [EGA945], YAEHCWLFPTDWICSLMT [EGA916], YEEHCLQFPADWICTLLP [EGA960], YAEHCRVFPTDWICTLRP [EGA893], YADHCRFFPTDWICTLMP [EGA908], YADHCCHFPADWICTLNA [EGA900]
